Test results: PubChem BioAssay AID212 (DTP/NCI, 2004)
The list shows only some results of the screen, not a fair sample: its compounds were picked by chemical class. Not every dose and run of a compound is shown. T/C: endpoint of the treated group in % of that of the vehicle group. Schedule codes are those of the source, taken here to give the interval after Q, in days (D) or hours (H), and the number of doses after X. Some T/C values carry the count of animals alive at the toxicity check; where neither a count nor a note follows, no animal had died by that day. Some entries were tested several times; the results are listed from low to high. Some entries show no survivor count and are marked so; the dose need not have been tolerated. Some entries give survivors of the animals treated and no T/C: the source holds a T/C of zero for them, seemingly a mark for toxic or unscored doses. Survivors were counted at the toxicity check; its day is shown where the source gives one, and later deaths do not show.

System: BDF1 mice, colon carcinoma 38 sc, T/C %
Assay: NCI In Vivo Anticancer Drug Screen. Data for tumor model Colon Carcinoma 38 (subcutaneous) in B6D2F1 (BDF1) mice
Details: T/C endpoint: median tumor weight (est.), schedule: Q07DX002 (ip), higher T/C = larger tumour
Procedure: The antitumor activity of compounds was measured in mice bearing transplantable tumors. Survival or tumor size were measured and the results are expressed as the measurement made in the treated group (T) divided by the measurement made in the vehicle treated control group (C). The tumor model used in this assay is Colon Carcinoma 38 (subcutaneous) in B6D2F1 (BDF1) mice

[1] = dose: 6.25 mg/kg/injection, vehicle: Klucel (hydroxypropylcellulose) (HPC), evaluated on day 20
[2] = dose: 12.5 mg/kg/injection, vehicle: Klucel (hydroxypropylcellulose) (HPC), evaluated on day 20
[3] = dose: 25.0 mg/kg/injection, vehicle: Klucel (hydroxypropylcellulose) (HPC), evaluated on day 20
[4] = dose: 25.0 mg/kg/injection, vehicle: Klucel (hydroxypropylcellulose) (HPC), evaluation day not shown
[5] = dose: 50.0 mg/kg/injection, vehicle: Klucel (hydroxypropylcellulose) (HPC), evaluated on day 20
[6] = dose: 50.0 mg/kg/injection, vehicle: Klucel (hydroxypropylcellulose) (HPC), evaluation day not shown
[7] = dose: 100.0 mg/kg/injection, vehicle: Klucel (hydroxypropylcellulose) (HPC), evaluated on day 20
[8] = dose: 200.0 mg/kg/injection, vehicle: Klucel (hydroxypropylcellulose) (HPC)
[9] = dose: 100.0 mg/kg/injection, vehicle: Klucel (hydroxypropylcellulose) (HPC), evaluation day not shown
[10] = dose: 200.0 mg/kg/injection, vehicle: Klucel (hydroxypropylcellulose) (HPC), evaluation day not shown

Structure (SMILES): ClCCN(CCCl)c1ccccc1
- T/C [1]: 63 % of control
- T/C (dose: 6.25 mg/kg/injection, vehicle: saline, evaluation day not shown): 43 % of control [survivor count not shown]
- T/C (dose: 7.5 mg/kg/injection, vehicle: Klucel (hydroxypropylcellulose) (HPC), evaluated on day 20): 113 % of control
- T/C [2]: 46 % of control
- T/C (dose: 12.5 mg/kg/injection, vehicle: Klucel (hydroxypropylcellulose) (HPC), evaluation day not shown): 127 % of control [survivor count not shown]
- T/C (dose: 12.5 mg/kg/injection, vehicle: saline with Tween-80, evaluation day not shown): 75 [survivor count not shown] and 149 % of control [survivor count not shown]
- T/C (dose: 12.5 mg/kg/injection, vehicle: saline, evaluation day not shown): 48 % of control [survivor count not shown]
- T/C (dose: 15.0 mg/kg/injection, vehicle: Klucel (hydroxypropylcellulose) (HPC), evaluated on day 20): 68 and 83 % of control [9 of 10 alive on day 20]
- T/C [3]: 72 % of control
- T/C [4]: 69 % of control [survivor count not shown]
- T/C (dose: 25.0 mg/kg/injection, vehicle: saline with Tween-80, evaluation day not shown): 44 [survivor count not shown] and 108 % of control [survivor count not shown]
- T/C (dose: 25.0 mg/kg/injection, vehicle: saline, evaluation day not shown): 45 % of control [survivor count not shown]
- T/C (dose: 30.0 mg/kg/injection, vehicle: Klucel (hydroxypropylcellulose) (HPC), evaluated on day 20): 17 [9 of 10 alive on day 20] and 85 % of control
- T/C [5]: 5 % of control
- T/C [6]: 51 % of control [survivor count not shown]
- T/C (dose: 50.0 mg/kg/injection, vehicle: saline with Tween-80, evaluation day not shown): 31 [survivor count not shown] and 47 % of control [survivor count not shown]
- T/C (dose: 50.0 mg/kg/injection, vehicle: saline, evaluation day not shown): 17 % of control [survivor count not shown]
- T/C (dose: 60.0 mg/kg/injection, vehicle: Klucel (hydroxypropylcellulose) (HPC), evaluated on day 20): 62 % of control
- T/C [7]: 2 % of control [7 of 10 alive on day 20]
- T/C (dose: 100.0 mg/kg/injection, vehicle: saline with Tween-80, evaluation day not shown): 12 [survivor count not shown] and 15 % of control [survivor count not shown]
- T/C (dose: 120.0 mg/kg/injection, vehicle: Klucel (hydroxypropylcellulose) (HPC), evaluated on day 20): 10 % of control [9 of 10 alive on day 20]
- survivor count [8]: 0 of 10 on day 20
- T/C (dose: 240.0 mg/kg/injection, vehicle: Klucel (hydroxypropylcellulose) (HPC), evaluated on day 20): 27 % of control [7 of 10 alive on day 20]

Structure (SMILES): ClCCN(CCCl)c1ccc(Cl)cc1
- T/C [2]: 77 % of control
- T/C [3]: 66 % of control [9 of 10 alive on day 20]
- T/C [4]: 97 % of control [survivor count not shown]
- T/C [5]: 80 and 82 % of control
- T/C [6]: 197 % of control [survivor count not shown]
- T/C [7]: 83 and 101 % of control
- T/C [9]: 129 % of control [survivor count not shown]
- T/C (dose: 200.0 mg/kg/injection, vehicle: Klucel (hydroxypropylcellulose) (HPC), evaluated on day 20): 80 and 173 % of control [9 of 10 alive on day 20]
- T/C [10]: 118 % of control [survivor count not shown]
- T/C (dose: 400.0 mg/kg/injection, vehicle: Klucel (hydroxypropylcellulose) (HPC), evaluated on day 20): 85 and 113 % of control
- T/C (dose: 800.0 mg/kg/injection, vehicle: Klucel (hydroxypropylcellulose) (HPC), evaluated on day 20): 151 % of control

Structure (SMILES): C[N+](CCCl)(CCCl)Cc1ccc([N+](=O)[O-])cc1
- T/C (dose: 3.12 mg/kg/injection, vehicle: saline, evaluated on day 20): 153 % of control
- T/C (dose: 6.25 mg/kg/injection, vehicle: saline, evaluated on day 20): 142 % of control
- T/C (dose: 12.5 mg/kg/injection, vehicle: saline, evaluated on day 20): 167 % of control
- T/C (dose: 25.0 mg/kg/injection, vehicle: saline, evaluated on day 20): 150 % of control

Structure (SMILES): CC1=CC(=O)C(N(CCCl)CCCl)=CC1=O
- T/C (dose: 0.09 mg/kg/injection, vehicle: Klucel (hydroxypropylcellulose) (HPC), evaluated on day 20): 99 % of control
- T/C (dose: 0.19 mg/kg/injection, vehicle: Klucel (hydroxypropylcellulose) (HPC), evaluated on day 20): 73 % of control
- T/C (dose: 0.37 mg/kg/injection, vehicle: Klucel (hydroxypropylcellulose) (HPC), evaluated on day 20): 64 % of control
- T/C (dose: 0.75 mg/kg/injection, vehicle: Klucel (hydroxypropylcellulose) (HPC), evaluated on day 20): 77 % of control
- T/C (dose: 0.78 mg/kg/injection, vehicle: Klucel (hydroxypropylcellulose) (HPC), evaluated on day 20): 81 % of control
- T/C (dose: 0.78 mg/kg/injection, vehicle: other, evaluated on day 20): 122 % of control
- T/C (dose: 1.5 mg/kg/injection, vehicle: Klucel (hydroxypropylcellulose) (HPC), evaluated on day 20): 70 and 118 % of control
- T/C (dose: 1.56 mg/kg/injection, vehicle: Klucel (hydroxypropylcellulose) (HPC), evaluated on day 20): 76 % of control
- T/C (dose: 3.0 mg/kg/injection, vehicle: Klucel (hydroxypropylcellulose) (HPC), evaluated on day 20): 83 and 139 % of control
- T/C (dose: 3.12 mg/kg/injection, vehicle: other, evaluated on day 20): 60 % of control
- T/C (dose: 3.13 mg/kg/injection, vehicle: Klucel (hydroxypropylcellulose) (HPC), evaluated on day 20): 65 % of control
- T/C (dose: 6.25 mg/kg/injection, vehicle: other, evaluated on day 20): 84 % of control
- T/C (dose: 12.5 mg/kg/injection, vehicle: other, evaluated on day 20): 82 % of control

Structure (SMILES): NS(=O)(=O)c1ccc(N(CCCl)CCCl)cc1
- T/C [5]: 85 % of control
- T/C [7]: 93 % of control
- T/C [9]: 143 % of control [survivor count not shown]
- T/C [10]: 118 % of control [survivor count not shown]

Structure (SMILES): Cc1ccc(N(CCBr)CCBr)cc1
- T/C [1]: 123 % of control
- survivor count (dose: 12.5 mg/kg/injection, vehicle: Klucel (hydroxypropylcellulose) (HPC)): 3 of 10 on day 20
- survivor count (dose: 25.0 mg/kg/injection, vehicle: Klucel (hydroxypropylcellulose) (HPC)): 4 of 10 on day 20
- survivor count (dose: 50.0 mg/kg/injection, vehicle: Klucel (hydroxypropylcellulose) (HPC)): 0 of 10 on day 20
- survivor count (dose: 100.0 mg/kg/injection, vehicle: Klucel (hydroxypropylcellulose) (HPC)): 0 of 10 on day 20
- survivor count [8]: 0 of 10 on day 20
